From article PMC5167762
Results are given in words; binding and its absence hold for the method and conditions named. Some entries that bind do so weakly or less than the wild type.

Protein sequences, listed by entry. Tags and fused reporters are not part of them.
UniProt Q8H443: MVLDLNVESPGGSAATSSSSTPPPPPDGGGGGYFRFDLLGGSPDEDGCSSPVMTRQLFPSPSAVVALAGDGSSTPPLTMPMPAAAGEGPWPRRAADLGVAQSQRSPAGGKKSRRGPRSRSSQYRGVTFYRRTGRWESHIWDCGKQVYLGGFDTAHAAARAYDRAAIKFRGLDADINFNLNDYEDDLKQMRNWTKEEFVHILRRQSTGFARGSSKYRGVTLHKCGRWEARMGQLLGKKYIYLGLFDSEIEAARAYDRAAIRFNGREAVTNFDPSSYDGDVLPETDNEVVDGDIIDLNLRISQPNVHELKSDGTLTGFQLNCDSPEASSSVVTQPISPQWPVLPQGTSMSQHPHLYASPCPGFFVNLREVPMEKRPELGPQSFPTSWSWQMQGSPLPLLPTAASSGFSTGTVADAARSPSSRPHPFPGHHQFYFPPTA
UniProt Q84TB5: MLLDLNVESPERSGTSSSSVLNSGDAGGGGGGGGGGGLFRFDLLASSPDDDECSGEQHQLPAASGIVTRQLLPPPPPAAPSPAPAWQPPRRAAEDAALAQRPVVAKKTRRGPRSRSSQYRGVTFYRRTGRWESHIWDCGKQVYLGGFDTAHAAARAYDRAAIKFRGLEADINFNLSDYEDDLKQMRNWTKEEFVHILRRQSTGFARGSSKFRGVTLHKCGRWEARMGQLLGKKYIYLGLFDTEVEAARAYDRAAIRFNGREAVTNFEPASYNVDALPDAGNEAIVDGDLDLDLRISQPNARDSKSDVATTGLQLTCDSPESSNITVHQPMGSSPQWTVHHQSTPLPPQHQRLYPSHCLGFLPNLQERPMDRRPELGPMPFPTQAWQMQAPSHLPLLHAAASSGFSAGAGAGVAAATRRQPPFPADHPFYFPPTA
UniProt Q10PZ9: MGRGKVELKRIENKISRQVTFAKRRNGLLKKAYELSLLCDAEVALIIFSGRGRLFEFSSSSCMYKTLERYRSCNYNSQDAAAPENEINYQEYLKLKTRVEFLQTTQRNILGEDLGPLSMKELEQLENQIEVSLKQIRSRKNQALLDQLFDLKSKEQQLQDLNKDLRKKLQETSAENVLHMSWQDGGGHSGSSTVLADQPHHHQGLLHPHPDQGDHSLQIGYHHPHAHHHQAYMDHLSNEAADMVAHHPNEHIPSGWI

Experiments:
[1] = biological target: AP2-3 (rice (Oryza sativa japonica)) (UniProt Q8H443); test: two-hybrid; yeast two-hybrid (Clontech); OsMADS1 ORF in the prey vector pGAD-T7, ORFs of AP2s in the bait vector pGBK-T7
[2] = biological target: AP2-2 (rice (Oryza sativa japonica)) (UniProt Q84TB5); test: as above

Substance: OsMADS1 (from UniProt Q10PZ9 1-257)
- binding [1]: binds
- binding [2]: binds
